This passage reports binding results from paper PMC2810291, “Identification and characterization of endonuclein binding proteins: evidence of modulatory effects on signal transduction and chaperone activity” (BMC Biochemistry, 2009).

Sequences of proteins named here, by UniProt entry; tags and fusion partners are left off. Residues count along the entry.
UniProt Q9UBS4, residues 23-358: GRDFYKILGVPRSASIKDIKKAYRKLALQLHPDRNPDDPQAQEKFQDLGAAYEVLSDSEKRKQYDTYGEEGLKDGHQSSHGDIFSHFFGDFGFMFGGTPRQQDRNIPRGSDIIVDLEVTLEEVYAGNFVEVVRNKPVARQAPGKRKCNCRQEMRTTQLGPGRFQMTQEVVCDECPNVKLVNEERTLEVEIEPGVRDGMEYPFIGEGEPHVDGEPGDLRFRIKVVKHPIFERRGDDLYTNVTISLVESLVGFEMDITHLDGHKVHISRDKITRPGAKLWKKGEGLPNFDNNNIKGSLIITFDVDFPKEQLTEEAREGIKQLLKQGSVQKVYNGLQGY
UniProt O14907: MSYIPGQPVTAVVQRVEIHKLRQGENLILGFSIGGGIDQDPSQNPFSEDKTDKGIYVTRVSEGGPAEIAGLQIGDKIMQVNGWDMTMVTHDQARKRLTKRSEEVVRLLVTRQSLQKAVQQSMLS

Results are given in words; binding and its absence hold for the method and conditions named. Binding seen in cells or lysates may run through a third protein. Here binding means that the protein was enriched with, or labelled near, the bait; the list need not be complete.

To fix the notation:
B1: stromal cell-derived factor 2-like protein 1 (protein spot No. 8) (protein, UniProt Q9HCN8 29-221)
chain: AKTGAELVTCGSVLKLLNTHHRVRLHSHDIKYGSGSGQQSVTGVEASDDANSYWRIRGGSEGGCPRGSPVRCGQAVRLTHVLTGKNLHTHHFPSPLSNNQEVSAFGEDGEGDDLDLWTVRCSGQHWEREAAVRFQHVGTSVFLSVTGEQYGSPIRGQHEVHGMPSANTHNTWKAMEGIFIKPSVEPSAGHDEL
B2: mitochondrial single-stranded DNA binding protein (protein spot No. 17) (protein, UniProt Q04837 17-148)
chain: ESETTTSLVLERSLNRVHLLGRVGQDPVLRQVEGKNPVTIFSLATNEMWRSGDSEVYQLGDVSQKTTWHRISVFRPGLRDVAYQYVKKGSRIYLEGKIDYGEYMDKNNVRRQATTIIADNIIFLSDQTKEKE

For the assay, the target named is T1, recombinant endonuclein (human, UniProt Q13610 2-501).
T1 construct: human endonuclein, coding region Asn2-Ser501 of the 2309.2 cDNA, in the vector pT7-PL; also called IEF SSP 9502; PWP1 (yeast homologue's name)
Nature of the assay: affinity purification with mass spectrometry; recombinant endonuclein coupled to cyanogen bromide-activated Sepharose 4B; placenta tissue extract applied in MB-buffer (2 mM CaCl2, 1 mM MgCl2, 140 mM NaCl, 10 mM Hepes, pH 7.4); wash with 1 M NaCl; elution with 0.1 M glycine pH 2.7; 2D-PAGE, silver staining, nano-electrospray MS/MS; reference column without endonuclein; only the target purified.
As for “DnaJ homolog subfamily B member 11 (protein spot No. 4) (from UniProt Q9UBS4 23-358)”, the binding entry was “binds”.

For the molecule “Tax interaction protein 1 (protein spots No. 2 and No. 11) (from UniProt O14907 1-124)”, the binding result is listed as “binds”.

In the case of B1, the binding entry is listed as “binds”.

With B2, the binding result is listed as “binds”.
